Patent publication EP0642531B1, “MONOMER AND DIMER PEPTIDES, UTILIZATION AS CYTOPROTECTOR AGENTS AND PREPARATION METHOD” (INSTITUT DES VAISSEAUX ET DU SANG, priority 1992, dated 1997)
At least one peptide structure holds a part that was inferred or is arguable (an end, a ring closure or a residue). Marks after values point to notes of the source that are not given here. Where a SMILES comes first, the peptide text is derived from it. Bridges are numbered along the chain shown (N, C = ends). Roman numbers before positions name the chains, in order. Where no end group is shown, it is not given here. [ ]: non-standard residue; d: D form.

Key:
[1] = test system: mégacaryocytopoïèse in vivo; assay: Megakaryocytopoiesis in vivo in normal mice (marrow and blood counts); design: species or system souris Balb/c; settings: for results of analogous tests on mégacaryocytopoïèse in vivo compared with exemple 1: in vivo tests analogous to those of exemple 1
Protocol: L'effet du dodécapeptide de l'exemple 1 sur la mégacaryocytopoïèse in vivo a été testé sur des souris normales selon une méthode décrite par HAN et al., dans l'article C.R. Acad. Sci. Paris, (1991), 313, Série III, 553-558 précité. Chaque groupe contient 5-10 souris Balb/c. Le peptide est injecté par voie sous-cutanée deux fois par jour pendant 4 jours aux concentrations de 1 µg et 5 µg par souris pour chaque administration. Les échantillons de moëlle et/ou de sang ont été prélevés au jour J2 qui suit la dernière injection.
Les souris ont été tuées par dislocation cervicale. Les cellules médullaires ont été obtenues à partir des fémurs et le sang a été obtenu par ponction cardiaque. Les cellules médullaires à la concentration de 2 x 10^5 cellules mononucléées par ml ont été remises en culture en cinq exemplaires en présence de sérum de porc aplasique pendant une semaine pour tester le nombre de progéniteurs mégacaryocytaires (CFU-MK). Le nombre des mégacaryocytes a été évalué sur des cellules médullaires non cultivées mais ensemencées dans des boîtes de culture après obtention à partir des fémurs. Le nombre de plaquettes, de globules blancs et le taux d'hémoglobine ont été mesurés en utilisant un compteur hématopoiétique automatique.
Le dodécapeptide de l'exemple 1 a été injecté par voie sous-cutanée à des souris Balb/c deux fois par jour pendant 4 jours à des concentrations de 0, 40 et 200 µg/kg. Les échantillons de moelle et de sang ont été prélevés le deuxième jour suivant la dernière injection. Les résultats obtenus, qui sont consignés dans le tableau I ci-après, représentent la moyenne ± SEM de trois expériences, chaque groupe de souris contenant au moins 5 animaux. TABLEAU I

[2] = test system: cellules médullaires normales; assay: Culture of human megakaryocyte progenitors (plasma clot), MK colony formation; type: cell-based, humaine; settings: for results of analogous tests on mégacaryocytopoïèse in vitro compared with exemple 1: in vitro tests analogous to those of exemple 1
cellules HEL = assay: HEL cell colony formation; type: cell-based, humaine; settings: for maturation des cellules HEL / prolifération des cellules HEL: in vitro
[3] = test system: agressions cytotoxiques (5FU); assay: Cytoprotection in vivo against 5FU (first and second protocol); settings: souris Balb/c, 5FU 150 mg/kg i.p.; tableaux II and III (images)
[4] = souris Balb/c, 40 µg/kg s.c. twice daily for 4 days, sampled day 2 after last injection, mean ± SEM

Row | Compound | Moëlle CFU-MK [1, 4] | Moëlle MK [1, 4] | Sang P (plaquettes) [1, 4] | formation des colonies mégacaryocytaires ([2]; normal human marrow cultures with human aplastic serum, 0,1-10 µg/ml, figure 1A) | formation des colonies HEL (cellules HEL; 0 to 10 µg/ml, 3 experiments, figure 1B) | maturation des cellules HEL (cellules HEL) | prolifération des cellules HEL (cellules HEL) | cytoprotection [3] | activity relative to exemple 1 ([1]; analogous tests in vitro and in vivo, test not specified) | results of analogous tests on mégacaryocytopoïèse in vivo compared with exemple 1 [1] | results of analogous tests on mégacaryocytopoïèse in vitro compared with exemple 1 [2] | maturation des cellules HEL (cellules HEL; listed as Ex 2) | prolifération des cellules HEL (cellules HEL; listed as Ex 2)
1 | NGRKICLDLEAP [exemple 1] | 41±4* 2 x 10^5 cellules | 289±12 2 x 10^5 cellules | 946±49 10^3/µl | inhibe la formation des colonies mégacaryocytaires | inhibe de façon significative la formation des colonies HEL | sans action sur la maturation | effet anti-prolifération | propriétés cytoprotectrices |  |  |  |  | 
2 | CC[C@H](C)[C@H](NC(=O)[C@H](CCCCN)NC(=O)[C@H](CCCNC(=N)N)NC(=O)CNC(=O)[C@@H](N)CC(N)=O)C(=O)N[C@@H](CSSC[C@H](NC(=O)[C@@H](NC(=O)[C@H](CCCCN)NC(=O)[C@H](CCCNC(=N)N)NC(=O)CNC(=O)[C@@H](N)CC(N)=O)[C@@H](C)CC)C(=O)N[C@@H](CC(C)C)C(=O)N[C@@H](CC(=O)O)C(=O)N[C@@H](CC(C)C)C(=O)N[C@@H](CCC(=O)O)C(=O)N[C@@H](C)C(=O)N1CCC[C@H]1C(=O)O)C(=O)N[C@@H](CC(C)C)C(=O)N[C@@H](CC(=O)O)C(=O)N[C@@H](CC(C)C)C(=O)N[C@@H](CCC(=O)O)C(=O)N[C@@H](C)C(=O)N1CCC[C@H]1C(=O)O [exemple 2] (I: H-NGRKICLDLEAP-OH / II: H-NGRKICLDLEAP-OH; disulfide I:6-II:6) |  |  |  |  |  | non par l'inhibition de la maturation | inhibition de la prolifération des cellules |  | plus actif que celui de l'exemple 1 | similaires | similaires | sans action sur la maturation | effet anti-prolifération
3 | CC[C@H](C)[C@H](NC(=O)[C@H](CCCCN)NC(=O)[C@H](CCCNC(=N)N)NC(=O)CNC(=O)[C@H](N)CC(N)=O)C(=O)N[C@@H](CS)C(=O)N[C@@H](CC(C)C)C(=O)N[C@@H](CC(=O)O)C(=O)N[C@@H](CC(C)C)C(=O)N[C@@H](CCC(=O)O)C(=O)N[C@@H](C)C(=O)N1CCC[C@H]1C(=O)O [1bis] (H-[dN]GRKICLDLEAP-OH) |  |  |  |  |  | non par l'inhibition de la maturation | inhibition de la prolifération des cellules |  |  | similaires | similaires |  | 
